In article PMC8510536:
No constants are given. Whether binding was seen depends on the method and setting. In cells and extracts the contact can be indirect. Binding can be weak; no strength is given.

The chains behind the UniProt entries cited, without tags or fusion partners. Where a name states a change or a piece, a line headed by the entry shows the natural chain unless it says otherwise.
UniProt J9VUC9: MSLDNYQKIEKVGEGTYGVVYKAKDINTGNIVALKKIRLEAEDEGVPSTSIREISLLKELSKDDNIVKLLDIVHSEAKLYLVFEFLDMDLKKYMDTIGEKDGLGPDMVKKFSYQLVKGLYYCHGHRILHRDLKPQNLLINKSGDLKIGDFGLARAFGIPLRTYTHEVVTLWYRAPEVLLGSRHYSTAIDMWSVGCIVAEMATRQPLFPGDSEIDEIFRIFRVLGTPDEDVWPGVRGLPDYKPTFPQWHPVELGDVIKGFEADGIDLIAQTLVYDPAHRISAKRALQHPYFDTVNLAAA
UniProt J9VV14: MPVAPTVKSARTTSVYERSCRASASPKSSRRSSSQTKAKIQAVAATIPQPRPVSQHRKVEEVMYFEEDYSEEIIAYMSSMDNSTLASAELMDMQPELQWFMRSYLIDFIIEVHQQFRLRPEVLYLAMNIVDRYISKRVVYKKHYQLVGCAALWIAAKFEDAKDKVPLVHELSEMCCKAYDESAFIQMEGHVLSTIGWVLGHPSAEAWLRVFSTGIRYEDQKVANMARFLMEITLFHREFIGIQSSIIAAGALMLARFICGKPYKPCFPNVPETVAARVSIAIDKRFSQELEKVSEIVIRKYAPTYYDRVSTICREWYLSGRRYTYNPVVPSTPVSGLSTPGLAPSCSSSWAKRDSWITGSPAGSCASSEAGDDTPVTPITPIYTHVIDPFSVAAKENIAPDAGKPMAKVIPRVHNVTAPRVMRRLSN

Target: Cdk1-Myc (C. neoformans) (UniProt J9VUC9)
Assay: co-IP; Lysates of the CLN1-His6 CDK1-Myc strain collected at 0 to 90 min (15-min intervals) after release from stationary phase into fresh YPD; Cdk1-Myc precipitated with the Pierce c-Myc-tag IP/co-IP kit; Cln1-His6 detected by near-infrared Western blot with anti-His antibody; CDK1-Myc strain lysate as negative control

Substance: Cln1-His6 (from UniProt J9VV14)
- binding: binds
